{"source": "paper PMC7985710", "binders": {"B1": {"name": "WT scavenger receptor class B type I (human SR-BI) (receptor, UniProt Q8WTV0-2 1-509)", "chain": "MGCSAKARWAAGALGVAGLLCAVLGAVMIVMVPSLIKQQVLKNVRIDPSSLSFNMWKEIPIPFYLSVYFFDVMNPSEILKGEKPQVRERGPYVYREFRHKSNITFNNNDTVSFLEYRTFQFQPSKSHGSESDYIVMPNILVLGAAVMMENKPMTLKLIMTLAFTTLGERAFMNRTVGEIMWGYKDPLVNLINKYFPGMFPFKDKFGLFAELNNSDSGLFTVFTGVQNISRIHLVDKWNGLSKVDFWHSDQCNMINGTSGQMWPPFMTPESSLEFYSPEACRSMKLMYKESGVFEGIPTYRFVAPKTLFANGSIYPPNEGFCPCLESGIQNVSTCRFSAPLFLSHPHFLNADPVLAEAVTGLHPNQEAHSLFLDIHPVTGIPMNCSVKLQLSLYMKSVAGIGQTGKIEPVVLPLLWFAESGAMEGETLHTFYTQLVLMPKVMHYAQYVLLALGCVLLLVPVICQIRSQEKCYLFWSSSKKGSKDKEAIQAYSESLMTSAPKGSVLQEAKL"}, "B2": {"name": "R174C-SR-BI (human variant of scavenger receptor class B type I) (receptor, UniProt Q8WTV0-2 1-509)", "chain": "MGCSAKARWAAGALGVAGLLCAVLGAVMIVMVPSLIKQQVLKNVRIDPSSLSFNMWKEIPIPFYLSVYFFDVMNPSEILKGEKPQVRERGPYVYREFRHKSNITFNNNDTVSFLEYRTFQFQPSKSHGSESDYIVMPNILVLGAAVMMENKPMTLKLIMTLAFTTLGERAFMNCTVGEIMWGYKDPLVNLINKYFPGMFPFKDKFGLFAELNNSDSGLFTVFTGVQNISRIHLVDKWNGLSKVDFWHSDQCNMINGTSGQMWPPFMTPESSLEFYSPEACRSMKLMYKESGVFEGIPTYRFVAPKTLFANGSIYPPNEGFCPCLESGIQNVSTCRFSAPLFLSHPHFLNADPVLAEAVTGLHPNQEAHSLFLDIHPVTGIPMNCSVKLQLSLYMKSVAGIGQTGKIEPVVLPLLWFAESGAMEGETLHTFYTQLVLMPKVMHYAQYVLLALGCVLLLVPVICQIRSQEKCYLFWSSSKKGSKDKEAIQAYSESLMTSAPKGSVLQEAKL"}, "B3": {"name": "R174K-SR-BI (receptor, UniProt Q8WTV0-2 1-509)", "chain": "MGCSAKARWAAGALGVAGLLCAVLGAVMIVMVPSLIKQQVLKNVRIDPSSLSFNMWKEIPIPFYLSVYFFDVMNPSEILKGEKPQVRERGPYVYREFRHKSNITFNNNDTVSFLEYRTFQFQPSKSHGSESDYIVMPNILVLGAAVMMENKPMTLKLIMTLAFTTLGERAFMNKTVGEIMWGYKDPLVNLINKYFPGMFPFKDKFGLFAELNNSDSGLFTVFTGVQNISRIHLVDKWNGLSKVDFWHSDQCNMINGTSGQMWPPFMTPESSLEFYSPEACRSMKLMYKESGVFEGIPTYRFVAPKTLFANGSIYPPNEGFCPCLESGIQNVSTCRFSAPLFLSHPHFLNADPVLAEAVTGLHPNQEAHSLFLDIHPVTGIPMNCSVKLQLSLYMKSVAGIGQTGKIEPVVLPLLWFAESGAMEGETLHTFYTQLVLMPKVMHYAQYVLLALGCVLLLVPVICQIRSQEKCYLFWSSSKKGSKDKEAIQAYSESLMTSAPKGSVLQEAKL"}, "B4": {"name": "R174D-SR-BI (receptor, UniProt Q8WTV0-2 1-509)", "chain": "MGCSAKARWAAGALGVAGLLCAVLGAVMIVMVPSLIKQQVLKNVRIDPSSLSFNMWKEIPIPFYLSVYFFDVMNPSEILKGEKPQVRERGPYVYREFRHKSNITFNNNDTVSFLEYRTFQFQPSKSHGSESDYIVMPNILVLGAAVMMENKPMTLKLIMTLAFTTLGERAFMNDTVGEIMWGYKDPLVNLINKYFPGMFPFKDKFGLFAELNNSDSGLFTVFTGVQNISRIHLVDKWNGLSKVDFWHSDQCNMINGTSGQMWPPFMTPESSLEFYSPEACRSMKLMYKESGVFEGIPTYRFVAPKTLFANGSIYPPNEGFCPCLESGIQNVSTCRFSAPLFLSHPHFLNADPVLAEAVTGLHPNQEAHSLFLDIHPVTGIPMNCSVKLQLSLYMKSVAGIGQTGKIEPVVLPLLWFAESGAMEGETLHTFYTQLVLMPKVMHYAQYVLLALGCVLLLVPVICQIRSQEKCYLFWSSSKKGSKDKEAIQAYSESLMTSAPKGSVLQEAKL"}, "B5": {"name": "D185R-SR-BI (receptor, UniProt Q8WTV0-2 1-509)", "chain": "MGCSAKARWAAGALGVAGLLCAVLGAVMIVMVPSLIKQQVLKNVRIDPSSLSFNMWKEIPIPFYLSVYFFDVMNPSEILKGEKPQVRERGPYVYREFRHKSNITFNNNDTVSFLEYRTFQFQPSKSHGSESDYIVMPNILVLGAAVMMENKPMTLKLIMTLAFTTLGERAFMNRTVGEIMWGYKRPLVNLINKYFPGMFPFKDKFGLFAELNNSDSGLFTVFTGVQNISRIHLVDKWNGLSKVDFWHSDQCNMINGTSGQMWPPFMTPESSLEFYSPEACRSMKLMYKESGVFEGIPTYRFVAPKTLFANGSIYPPNEGFCPCLESGIQNVSTCRFSAPLFLSHPHFLNADPVLAEAVTGLHPNQEAHSLFLDIHPVTGIPMNCSVKLQLSLYMKSVAGIGQTGKIEPVVLPLLWFAESGAMEGETLHTFYTQLVLMPKVMHYAQYVLLALGCVLLLVPVICQIRSQEKCYLFWSSSKKGSKDKEAIQAYSESLMTSAPKGSVLQEAKL"}, "B6": {"name": "R174D-SR-BI/D185R-SR-BI (receptor, UniProt Q8WTV0-2 1-509)", "chain": "MGCSAKARWAAGALGVAGLLCAVLGAVMIVMVPSLIKQQVLKNVRIDPSSLSFNMWKEIPIPFYLSVYFFDVMNPSEILKGEKPQVRERGPYVYREFRHKSNITFNNNDTVSFLEYRTFQFQPSKSHGSESDYIVMPNILVLGAAVMMENKPMTLKLIMTLAFTTLGERAFMNDTVGEIMWGYKRPLVNLINKYFPGMFPFKDKFGLFAELNNSDSGLFTVFTGVQNISRIHLVDKWNGLSKVDFWHSDQCNMINGTSGQMWPPFMTPESSLEFYSPEACRSMKLMYKESGVFEGIPTYRFVAPKTLFANGSIYPPNEGFCPCLESGIQNVSTCRFSAPLFLSHPHFLNADPVLAEAVTGLHPNQEAHSLFLDIHPVTGIPMNCSVKLQLSLYMKSVAGIGQTGKIEPVVLPLLWFAESGAMEGETLHTFYTQLVLMPKVMHYAQYVLLALGCVLLLVPVICQIRSQEKCYLFWSSSKKGSKDKEAIQAYSESLMTSAPKGSVLQEAKL"}}, "assay_in_all_cases": "PFOA-PAGE with immunoblot; sonicated lysates (10 μg) of transfected COS-7 cells separated in 5% perfluorooctanoic acid under nonreducing conditions; SR-BI detected with a C-terminal antibody", "key": {"[1]": {"target": "WT scavenger receptor class B type I (human SR-BI) (human) (UniProt Q8WTV0)"}, "[2]": {"target": "R174C-SR-BI (human variant of scavenger receptor class B type I) (human) (UniProt Q8WTV0)"}, "R174K-SR-BI (human)": {"target": "R174K-SR-BI (human) (UniProt Q8WTV0)"}, "R174D-SR-BI (human)": {"target": "R174D-SR-BI (human) (UniProt Q8WTV0)"}, "D185R-SR-BI (human)": {"target": "D185R-SR-BI (human) (UniProt Q8WTV0)"}, "[3]": {"target": "R174D-SR-BI/D185R-SR-BI (human) (UniProt Q8WTV0)"}}, "note": "No constants are given. Whether binding was seen depends on the method and setting. Some binding calls cover weakened binding; strength is not graded here."}
{"binder": "B1", "values": [{"measurement": "binding", "setting": "[1]", "value": "binds"}]}
{"binder": "B2", "values": [{"measurement": "binding", "setting": "[2]", "value": "binds"}]}
{"binder": "B3", "values": [{"measurement": "binding", "setting": "R174K-SR-BI (human)", "value": "binds"}]}
{"binder": "B4", "values": [{"measurement": "binding", "setting": "R174D-SR-BI (human)", "value": "binds"}]}
{"binder": "B5", "values": [{"measurement": "binding", "setting": "D185R-SR-BI (human)", "value": "binds"}]}
{"binder": "B6", "values": [{"measurement": "binding", "setting": "[3]", "value": "binds"}]}
